# Experimental data published in the supplement of paper PMC11438910.
# The list shows a part of the results. Only a few entries rise above the background.
# B1: 4-173.4 (protein)
# chain 1: QLQLQESGPGLVKPSETLSLTCAVSGGSISSHYWSWIRQPPGKGLEWIGRFSAGGGSTDYNPSLKSRVTISTDTSKNQFTLNLNSVTAADTAVYYCTRGSYTSDYWGQGVLVTVSS
# chain 2: QAALTQSPSVSGSPGQSVTISCTGTSSDIGGYIRVSWYQQHPGKAPKLMIYEVSKRPSGVSDRFSGSKSGNTASLTISGLQAEDEADYYCFSYARGDTVLLGGGTRLTVL
# Legend:
# Experiment in all cases: fluorescence intensity of antibody binding to polysaccharide-coupled beads; higher = stronger binding
# [1] = target: pneumococcal polysaccharide Pn15B
# [2] = target: pneumococcal polysaccharide Pn15C
# [3] = target: pneumococcal polysaccharide Pn15F
# [4] = target: pneumococcal polysaccharide Pn16A
# [5] = target: pneumococcal polysaccharide Pn16F
# [6] = target: pneumococcal polysaccharide Pn17A
# [7] = target: pneumococcal polysaccharide Pn17F
# [8] = target: pneumococcal polysaccharide Pn18A
# [9] = target: pneumococcal polysaccharide Pn18B
# [10] = target: pneumococcal polysaccharide Pn18C
# [11] = target: pneumococcal polysaccharide Pn18F
# [12] = target: pneumococcal polysaccharide Pn19A
# [13] = target: pneumococcal polysaccharide Pn19B
# [14] = target: pneumococcal polysaccharide Pn19C
# [15] = target: pneumococcal polysaccharide Pn19F
# [16] = target: pneumococcal polysaccharide Pn2
# [17] = target: pneumococcal polysaccharide Pn20A
# [18] = target: pneumococcal polysaccharide Pn20B
# [19] = target: pneumococcal polysaccharide Pn21
# [20] = target: pneumococcal polysaccharide Pn22A
# [21] = target: pneumococcal polysaccharide Pn22F
# [22] = target: pneumococcal polysaccharide Pn23A
# [23] = target: pneumococcal polysaccharide Pn23B
# [24] = target: pneumococcal polysaccharide Pn23F
# [25] = antibody concentration 2337.65 ng/mL
# [26] = antibody concentration 12500 ng/mL
# [27] = antibody concentration 0.1 ng/mL
# [28] = antibody concentration 0.534724 ng/mL
# [29] = antibody concentration 2.8593 ng/mL
# [30] = antibody concentration 15.2894 ng/mL
# [31] = antibody concentration 81.7561 ng/mL
# [32] = antibody concentration 437.17 ng/mL
binder,measurement,setting,value
B1,fluorescence intensity,[1]; [25],22.8 MFI
same,fluorescence intensity,[1]; [26],29.2 MFI
same,fluorescence intensity,[2]; [27],16 MFI
same,fluorescence intensity,[2]; [28],17.8 MFI
same,fluorescence intensity,[2]; [29],15.8 MFI
same,fluorescence intensity,[2]; [30],14.5 MFI
same,fluorescence intensity,[2]; [31],15.5 MFI
same,fluorescence intensity,[2]; [32],19 MFI
same,fluorescence intensity,[2]; [25],19 MFI
same,fluorescence intensity,[2]; [26],20.5 MFI
same,fluorescence intensity,[3]; [27],17 MFI
same,fluorescence intensity,[3]; [28],16.2 MFI
same,fluorescence intensity,[3]; [29],17 MFI
same,fluorescence intensity,[3]; [30],18.2 MFI
same,fluorescence intensity,[3]; [31],17.8 MFI
same,fluorescence intensity,[3]; [32],17.5 MFI
same,fluorescence intensity,[3]; [25],18 MFI
same,fluorescence intensity,[3]; [26],23.5 MFI
same,fluorescence intensity,[4]; [27],15 MFI
same,fluorescence intensity,[4]; [28],13 MFI
same,fluorescence intensity,[4]; [29],13.5 MFI
same,fluorescence intensity,[4]; [30],12.5 MFI
same,fluorescence intensity,[4]; [31],15.2 MFI
same,fluorescence intensity,[4]; [32],15 MFI
same,fluorescence intensity,[4]; [25],15 MFI
same,fluorescence intensity,[4]; [26],18.8 MFI
same,fluorescence intensity,[5]; [27],23.2 MFI
same,fluorescence intensity,[5]; [28],24.2 MFI
same,fluorescence intensity,[5]; [29],23.8 MFI
same,fluorescence intensity,[5]; [30],23.5 MFI
same,fluorescence intensity,[5]; [31],23 MFI
same,fluorescence intensity,[5]; [32],24.5 MFI
same,fluorescence intensity,[5]; [25],26 MFI
same,fluorescence intensity,[5]; [26],33 MFI
same,fluorescence intensity,[6]; [27],21.8 MFI
same,fluorescence intensity,[6]; [28],21 MFI
same,fluorescence intensity,[6]; [29],19.5 MFI
same,fluorescence intensity,[6]; [30],20.8 MFI
same,fluorescence intensity,[6]; [31],20.2 MFI
same,fluorescence intensity,[6]; [32],20 MFI
same,fluorescence intensity,[6]; [25],21 MFI
same,fluorescence intensity,[6]; [26],23.5 MFI
same,fluorescence intensity,[7]; [27],26.5 MFI
same,fluorescence intensity,[7]; [28],25.5 MFI
same,fluorescence intensity,[7]; [29],25 MFI
same,fluorescence intensity,[7]; [30],25.5 MFI
same,fluorescence intensity,[7]; [31],25 MFI
same,fluorescence intensity,[7]; [32],28.2 MFI
same,fluorescence intensity,[7]; [25],28.5 MFI
same,fluorescence intensity,[7]; [26],30 MFI
same,fluorescence intensity,[8]; [27],25 MFI
same,fluorescence intensity,[8]; [28],24.5 MFI
same,fluorescence intensity,[8]; [29],25 MFI
same,fluorescence intensity,[8]; [30],23.5 MFI
same,fluorescence intensity,[8]; [31],23.5 MFI
same,fluorescence intensity,[8]; [32],23 MFI
same,fluorescence intensity,[8]; [25],24 MFI
same,fluorescence intensity,[8]; [26],26.5 MFI
same,fluorescence intensity,[9]; [27],29.8 MFI
same,fluorescence intensity,[9]; [28],30 MFI
same,fluorescence intensity,[9]; [29],29 MFI
same,fluorescence intensity,[9]; [30],28.5 MFI
same,fluorescence intensity,[9]; [31],31 MFI
same,fluorescence intensity,[9]; [32],31.5 MFI
same,fluorescence intensity,[9]; [25],32.5 MFI
same,fluorescence intensity,[9]; [26],37.5 MFI
same,fluorescence intensity,[10]; [27],18.5 MFI
same,fluorescence intensity,[10]; [28],19.5 MFI
same,fluorescence intensity,[10]; [29],18 MFI
same,fluorescence intensity,[10]; [30],20 MFI
same,fluorescence intensity,[10]; [31],18.5 MFI
same,fluorescence intensity,[10]; [32],22 MFI
same,fluorescence intensity,[10]; [25],22.8 MFI
same,fluorescence intensity,[10]; [26],34 MFI
same,fluorescence intensity,[11]; [27],25 MFI
same,fluorescence intensity,[11]; [28],23.8 MFI
same,fluorescence intensity,[11]; [29],23.2 MFI
same,fluorescence intensity,[11]; [30],23.5 MFI
same,fluorescence intensity,[11]; [31],21.5 MFI
same,fluorescence intensity,[11]; [32],23 MFI
same,fluorescence intensity,[11]; [25],28 MFI
same,fluorescence intensity,[11]; [26],32.5 MFI
same,fluorescence intensity,[12]; [27],17.5 MFI
same,fluorescence intensity,[12]; [28],19 MFI
same,fluorescence intensity,[12]; [29],17.8 MFI
same,fluorescence intensity,[12]; [30],17.5 MFI
same,fluorescence intensity,[12]; [31],17.5 MFI
same,fluorescence intensity,[12]; [32],21 MFI
same,fluorescence intensity,[12]; [25],22.5 MFI
same,fluorescence intensity,[12]; [26],27.5 MFI
same,fluorescence intensity,[13]; [27],29.5 MFI
same,fluorescence intensity,[13]; [28],29 MFI
same,fluorescence intensity,[13]; [29],30 MFI
same,fluorescence intensity,[13]; [30],26.2 MFI
same,fluorescence intensity,[13]; [31],29 MFI
same,fluorescence intensity,[13]; [32],30.2 MFI
same,fluorescence intensity,[13]; [25],31.5 MFI
same,fluorescence intensity,[13]; [26],82 MFI
same,fluorescence intensity,[14]; [27],26.2 MFI
same,fluorescence intensity,[14]; [28],26.5 MFI
same,fluorescence intensity,[14]; [29],26.2 MFI
same,fluorescence intensity,[14]; [30],27.2 MFI
same,fluorescence intensity,[14]; [31],25.2 MFI
same,fluorescence intensity,[14]; [32],26 MFI
same,fluorescence intensity,[14]; [25],28 MFI
same,fluorescence intensity,[14]; [26],55.5 MFI
same,fluorescence intensity,[15]; [27],26.5 MFI
same,fluorescence intensity,[15]; [28],26.2 MFI
same,fluorescence intensity,[15]; [29],25.5 MFI
same,fluorescence intensity,[15]; [30],26.5 MFI
same,fluorescence intensity,[15]; [31],23.8 MFI
same,fluorescence intensity,[15]; [32],29.5 MFI
same,fluorescence intensity,[15]; [25],31.5 MFI
same,fluorescence intensity,[15]; [26],44 MFI
same,fluorescence intensity,[16]; [27],18.8 MFI
same,fluorescence intensity,[16]; [28],19.8 MFI
same,fluorescence intensity,[16]; [29],19 MFI
same,fluorescence intensity,[16]; [30],20 MFI
same,fluorescence intensity,[16]; [31],21 MFI
same,fluorescence intensity,[16]; [32],19.8 MFI
same,fluorescence intensity,[16]; [25],22.5 MFI
same,fluorescence intensity,[16]; [26],28 MFI
same,fluorescence intensity,[17]; [27],23.5 MFI
same,fluorescence intensity,[17]; [28],22.5 MFI
same,fluorescence intensity,[17]; [29],23 MFI
same,fluorescence intensity,[17]; [30],22.5 MFI
same,fluorescence intensity,[17]; [31],22.2 MFI
same,fluorescence intensity,[17]; [32],22 MFI
same,fluorescence intensity,[17]; [25],25.5 MFI
same,fluorescence intensity,[17]; [26],57.2 MFI
same,fluorescence intensity,[18]; [27],23.5 MFI
same,fluorescence intensity,[18]; [28],24 MFI
same,fluorescence intensity,[18]; [29],24 MFI
same,fluorescence intensity,[18]; [30],24.5 MFI
same,fluorescence intensity,[18]; [31],24 MFI
same,fluorescence intensity,[18]; [32],23.5 MFI
same,fluorescence intensity,[18]; [25],23.5 MFI
same,fluorescence intensity,[18]; [26],30 MFI
same,fluorescence intensity,[19]; [27],19.5 MFI
same,fluorescence intensity,[19]; [28],19 MFI
same,fluorescence intensity,[19]; [29],19 MFI
same,fluorescence intensity,[19]; [30],18.8 MFI
same,fluorescence intensity,[19]; [31],20.8 MFI
same,fluorescence intensity,[19]; [32],19 MFI
same,fluorescence intensity,[19]; [25],22 MFI
same,fluorescence intensity,[19]; [26],23.8 MFI
same,fluorescence intensity,[20]; [27],20 MFI
same,fluorescence intensity,[20]; [28],22 MFI
same,fluorescence intensity,[20]; [29],19.8 MFI
same,fluorescence intensity,[20]; [30],20.5 MFI
same,fluorescence intensity,[20]; [31],21 MFI
same,fluorescence intensity,[20]; [32],21.5 MFI
same,fluorescence intensity,[20]; [25],22.5 MFI
same,fluorescence intensity,[20]; [26],34 MFI
same,fluorescence intensity,[21]; [27],31.5 MFI
same,fluorescence intensity,[21]; [28],29 MFI
same,fluorescence intensity,[21]; [29],35 MFI
same,fluorescence intensity,[21]; [30],31 MFI
same,fluorescence intensity,[21]; [31],32.8 MFI
same,fluorescence intensity,[21]; [32],31.5 MFI
same,fluorescence intensity,[21]; [25],33.5 MFI
same,fluorescence intensity,[21]; [26],36.5 MFI
same,fluorescence intensity,[22]; [27],25.8 MFI
same,fluorescence intensity,[22]; [28],27.8 MFI
same,fluorescence intensity,[22]; [29],23 MFI
same,fluorescence intensity,[22]; [30],22 MFI
same,fluorescence intensity,[22]; [31],22.5 MFI
same,fluorescence intensity,[22]; [32],27.5 MFI
same,fluorescence intensity,[22]; [25],35.8 MFI
same,fluorescence intensity,[22]; [26],56 MFI
same,fluorescence intensity,[23]; [27],29.8 MFI
same,fluorescence intensity,[23]; [28],30.5 MFI
same,fluorescence intensity,[23]; [29],31 MFI
same,fluorescence intensity,[23]; [30],28.8 MFI
same,fluorescence intensity,[23]; [31],28.2 MFI
same,fluorescence intensity,[23]; [32],31 MFI
same,fluorescence intensity,[23]; [25],32 MFI
same,fluorescence intensity,[23]; [26],35.2 MFI
same,fluorescence intensity,[24]; [27],18 MFI
same,fluorescence intensity,[24]; [28],18.5 MFI

# 5 consecutive entries already listed, for reference:
binder,measurement,setting,value
B1,fluorescence intensity,[3]; [27],17 MFI
same,fluorescence intensity,[3]; [28],16.2 MFI
same,fluorescence intensity,[3]; [29],17 MFI
same,fluorescence intensity,[3]; [30],18.2 MFI
same,fluorescence intensity,[3]; [31],17.8 MFI

# Some of the entries above, reformatted.
binder | measurement | setting | value
B1 | fluorescence intensity | [3]; [25] | 18 MFI
same | fluorescence intensity | [3]; [26] | 23.5 MFI
same | fluorescence intensity | [4]; [27] | 15 MFI
